Source: PubChem BioAssay (NCATS)
Inconclusive means that the source gave no clear call. Such entries were picked first, then a sample of the others. Potencies of inconclusive entries are doubtful fits and often do not repeat. Calls of active or inactive are those of the source. The call rests on the fitted dose curve; in most records, active means well fitted activation curve with a large enough effect; inconclusive means small, poorly fitted or top-dose-only effect, or another doubt; inactive means no such curve, though single readings can be large or run the other way.

Target: Rap guanine nucleotide exchange factor 3 (Homo sapiens) (UniProt O95398)
Test: Counterscreen qHTS for agonist of cAMP-regulated guanine nucleotide exchange factor 3 (EPAC1) (AID 1645889); further: nearly all actives have a fitted effect of over 40% in size; on activation: % of control where 0% means no effect
Details: EPAC1 Rap1B-BODIPY-GDP exchange, fluorescence; activation: at 154 µM (top of the series) unless noted
Outline: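 Rap1B-BODIPY-GDP 250 nM + GDP 50 uM; cpds 7-pt, final 9.74 nM–152 uM (activator mode) or from 7.32 nM upwards (inhibitor mode); RT; FI 480/540 nm at 5 and 30 min, then ± cAMP, reread.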
Potency means the concentration at half of the fitted maximal effect.

Structure (SMILES) | Potency | activation
COC(=O)c1ccccc1NC1=C/C(=N\S(=O)(=O)c2ccc(C(=O)O)cc2)c2ccccc2C1=O | inconclusive: 0.562 µM [activator, partial curve, poor fit] | 
CC(C)CCNc1nc(-c2ccco2)c2c(c1C#N)CCCC2 | inactive | 
CCOc1ccc(C2C3=C(CCCC3=O)Nc3ccc4ncccc4c32)cc1 (stereo unspecified) |  | inconclusive: 36.2% [activator] [at 30.8 µM]
O=S1(=O)N=C(N(Cc2cccs2)c2ccc(O)cc2)c2ccccc21 |  | inconclusive: 33.9% [activator]
CO/N=C/c1ccc(Sc2ccccc2)c([N+](=O)[O-])c1 |  | inconclusive: 51.3% [activator] [at 30.8 µM]
CCOP(=O)(OCC)C(Cc1ccc(OC)c(OC)c1)N=C(c1ccccc1)c1ccccc1 (stereo unspecified) |  | inactive: 17.1% [at 30.8 µM]
O=C1CCCC2=C1C(c1ccc(O)c(O)c1)Nc1ccc3ccccc3c12 (stereo unspecified) |  | inconclusive: 33.6% [activator]
CC(C)(C)n1cnc2cc(NCc3ccccc3Cl)ccc21 |  | inconclusive: 53.4% [activator]
O=c1c(Cl)c(Cl)cnn1Cc1nnc(-c2ccccc2Br)o1 | inconclusive: 0.251 µM [activator, full curve, poor fit] | 
CCn1c(=O)c2sccc2n2c(CCCC(=O)N3CCN(c4cc(C)ccc4C)CC3)nnc12 |  | inconclusive: 32.3% [activator]
O=C(COC(=O)c1ccc2c(c1)OCO2)NC1CCS(=O)(=O)C1 (stereo unspecified) | inactive | 
CCN(C(=O)c1noc2c1COc1ccc(C)cc1-2)c1cccc(C)c1 | inactive | 
CCCCCC(=O)Nc1cccc(C2=NOC3(C2)C[C@@H](C(N)=O)N(C(=O)CC(c2ccccc2)c2ccccc2)C3)c1 (stereo partly specified) |  | inactive: 34.5% [at 30.8 µM]
Cc1cc2oc(=O)c(CC(=O)O)c(C)c2c2occ(-c3ccccc3)c12 | inactive | 
CCOc1cc(/C=N/NC(=O)c2ccc3c(c2)OCCO3)cc(Br)c1O | inactive | 
COc1ccc(NC(=O)CN2CCN(c3c(C)cc(C)cc3C)CC2)cc1 |  | inactive: 16.1% [at 30.8 µM]

Quoted at random: two entries already listed
Structure (SMILES) | Potency | activation
CCN(C(=O)c1noc2c1COc1ccc(C)cc1-2)c1cccc(C)c1 | inactive | 
CC(C)CCNc1nc(-c2ccco2)c2c(c1C#N)CCCC2 | inactive | 

Additional results follow.

Structure (SMILES) | Potency | activation
COC(=O)C1=NN(c2ccccc2)C2(S1)SC(C(C)=O)=C(C)N2c1ccccc1 (stereo unspecified) | inconclusive: 11.2 µM [activator, partial curve, poor fit] | 
COc1ccc2oc(=O)c(-c3nnc(NCc4ccco4)s3)cc2c1 | inconclusive: 0.0447 µM [activator, full curve, poor fit] | 
O=C1C(=Cc2cn(-c3ccccc3)nc2-c2ccc(OCc3ccccc3)cc2)SC(=S)N1CCS(=O)(=O)O | inconclusive: 89.1 µM [activator, single point] | 
O=C1N(c2ccc(Cl)cc2)C(c2ccccc2)N2CCCN12 (stereo unspecified) |  | inconclusive: 34.8% [activator]
CC(=O)c1c(C)[nH]c(C(=O)OCC(=O)c2ccc3c(c2)NC(=O)CO3)c1C | inactive | 
COc1ccc(C)cc1NC(=O)CSc1nc(=O)n(Cc2ccco2)c2c1CCC2 |  | inconclusive: 19.7% [activator]
CN(C)S(=O)(=O)c1ccc(N2CCCC2)c(C(=O)NCC2COc3ccccc3O2)c1 (stereo unspecified) | inconclusive: 5.01 µM [activator, full curve, poor fit] | 
Cn1c(=O)c2c(SCc3cccnc3)nc(CC(C)(C)C)nc2n(C)c1=O |  | inactive: 9.84% [at 30.8 µM]
Cc1ccc(-n2nc3ccc(NC(=O)/C=C/c4ccco4)cc3n2)cc1C | inconclusive: 14.1 µM [activator, partial curve, poor fit] | 
COc1ccc(S(=O)(=O)N2CCCCC2)cc1NC(=O)c1c(F)cccc1Cl | inconclusive: 14.1 µM [activator, single point] | 
COc1ccc(CCNC(=O)c2c(C)nn(-c3ccc(F)cc3)c2-n2cccc2)cc1OC | inactive | 
CCOC(=O)C1CCCN(c2cc(=O)n(C3CCCCC3)c(=O)[nH]2)C1 (stereo unspecified) |  | inconclusive: 46.1% [activator]
CCCCOc1c(Br)cc(/C=N/O)cc1OCC |  | inactive: 5.43% [at 30.8 µM]
CC1(C(=O)NS(=O)(=O)c2cccs2)CCN1C(=O)C1(c2ccc(Cl)cc2)CCC1 (stereo unspecified) |  | inconclusive: 43.4% [activator] [at 30.8 µM]
CC(NC(=O)/C(C#N)=C/c1ccc([N+](=O)[O-])o1)c1ccccc1 (stereo unspecified) | inconclusive: 15.8 µM [activator, partial curve, poor fit] | 
